PubChem BioAssay AID540256 (National Center for Advancing Translational Sciences (NCATS), 2011)
About 3,700 (1.2%) of roughly 300,000 compounds were called active. The inconclusive results got no clear call from the source; some entries with a clear call stand among them for comparison. Calls come from the whole dose curve; tested in HEK293 cells. A potency beside an inconclusive call is a rough fit, not a confirmed value.

assay: qHTS for Inhibitors of binding or entry into cells for Lassa Virus; settings: Lassa virus pseudotype entry inhibition, cell reporter; series mostly up to 37.9 µM; note: nearly all actives have a fitted effect of over 50% in size
Potency is the fitted concentration of half-maximal effect.

Compound | Potency
COc1ccccc1N(C)S(=O)(=O)c1ccc(C(=O)N(C)Cc2ccc(Cl)s2)cc1 | active: 11.2 µM
CCCC(=O)Nc1nnc(SCC(=O)NC2CC2)s1 | inconclusive: 35.5 µM [inhibitor, single point]
CCOc1ccccc1NC(=O)COc1coc(CN2CCCc3ccccc32)cc1=O | inactive
COc1cc(SC)ccc1C(=O)N1CCC(Cc2ccccc2)CC1 | active: 8.2 µM
COc1ccccc1CCNC(=O)C(=O)NCC1OCCN1S(=O)(=O)c1ccc(Br)cc1 (configuration not stated) | inactive
CSCC[C@H](NC(=O)C1CCN(S(=O)(=O)c2ccc(C)cc2C)CC1)c1nc2ccccc2[nH]1 | inconclusive: 35.5 µM [inhibitor, single point]
O=C(NCc1nc(-c2ccccc2)no1)c1ccco1 | inactive
COc1ccc(/C=N\NC(=O)c2ccc(-c3ccccc3)cc2)cc1COC(C)=O | inconclusive: 35.5 µM [inhibitor, partial curve, poor fit]
CCOC(=O)c1c(CSc2nc(C)cc(C)c2C#N)n(C)c2cc(Br)c(OC(C)=O)cc12 | inconclusive: 1.26 µM [inhibitor, single point]
Cc1cc(C(=O)CN2C(=O)C3CC=CCC3C2=O)c(C)n1-c1ccccc1 (configuration not stated) | inconclusive: 16.4 µM [inhibitor, single point]
O=C(NCc1cccnc1)c1cc(Sc2ccccc2Cl)nc2ccccc12 | inconclusive: 35.5 µM [inhibitor, single point]
O=C(N/N=C/c1ccc(O)c(O)c1)NC12CC3CC(CC(C3)C1)C2 | inconclusive: 6.31 µM [inhibitor, full curve, poor fit]
COc1cc(Cl)c(C)cc1NC(=O)c1nn(C)c2c1CSc1ccccc1-2 | inactive
O=C(NCc1ccc(F)cc1)c1nc(-c2cccs2)no1 | inconclusive: 8.91 µM [inhibitor, partial curve, poor fit]
Cc1ccc(C(=O)N(CCCN(C)C)c2nc3ccc(Cl)cc3s2)cc1C | inconclusive: 11.2 µM [inhibitor, partial curve, poor fit]
O=C(NC1CCCCC1)C(c1ccc2ncccc2c1)N(Cc1ccc2c(c1)OCO2)C(=O)c1cccs1 (configuration not stated) | inactive
O=C(NCC(c1ccc2c(c1)OCO2)N1CCN(c2ccccc2F)CC1)c1ccccc1F (configuration not stated) | inconclusive: 7.08 µM [inhibitor, full curve, poor fit]
CCn1ncc([N+](=O)[O-])c1C(=O)Nc1ccc(C(=O)N2CCCCC2)cc1 | inconclusive: 4.11 µM [inhibitor, single point]
CCOC(=O)c1cccc(NC(=O)CN2CCN(c3ccc(OC)cc3)CC2)c1 | active: 1.12 µM
COc1ccc(-c2c(C#N)c(N)nc3sc(C(=O)c4ccccc4)c(N)c23)cc1 | inactive
CC(=O)Nc1ccc(S(=O)(=O)N(C)CC(=O)N/N=C/c2cccc(O)c2)cc1 | inactive

Compound | Potency
Cc1ccc(S(=O)(=O)C(NC(=O)c2ccccc2)=C(Cl)Cl)cc1 | inconclusive: 15.8 µM [inhibitor, single point]
CC(OC(=O)c1ccc(NC(=O)CC#N)cc1)C(=O)Nc1ccc2c(c1)OCCO2 (configuration not stated) | inconclusive: 0.141 µM [activator, full curve, poor fit]
Cc1ccc(NC(=S)N(CCCN(C)C)Cc2cc3cc4c(cc3[nH]c2=O)OCO4)cc1 | inconclusive: 35.5 µM [activator, single point]
CCOc1cc(/C=N\NC(N)=O)cc(Br)c1OC(C)C | inconclusive: 11.6 µM [inhibitor, partial curve, poor fit]
Cc1ccc(/C=N/NC(=O)c2csc3c2CCCC3)cc1 | inconclusive: 1 µM [inhibitor, single point]
COc1ccc(CCNc2nc(SCc3cccc(F)c3)nc3ccccc23)cc1OC | inconclusive: 31.6 µM [activator, single point]
CCC(C)NC(=O)CN1C(=O)c2cccnc2Oc2ccc(C)cc21 (configuration not stated) | inactive
CC(C)c1ccc(NC(=O)CN2C(=O)COc3ccc(S(=O)(=O)N4CCOCC4)cc32)cc1 | inconclusive: 35.5 µM [activator, single point]
Cc1ccc(C2/C(=C(\O)c3c(C)nc4ccccn34)C(=O)C(=O)N2CCN(C)C)o1 (configuration not stated) | inconclusive: 5.62 µM [inhibitor, single point]
CC(C)COc1ccc(CNC(=S)N/N=C/c2ccc([N+](=O)[O-])cc2)cc1 | inconclusive: 1.78 µM [inhibitor, full curve, poor fit]
COc1ccc(-c2cc(C)no2)cc1S(=O)(=O)N1CCOc2ccc(Cl)cc21 | inactive
CCCCOc1cc(C)nc(NCc2ccccc2)n1 | inconclusive: 12.6 µM [inhibitor, partial curve, poor fit]
COc1ccc2c(c1)c1nnc(SC)nc1n2C | inactive
COc1cccc(OC)c1C(=O)N1CCN=C1SCc1cccnc1 | inconclusive: 0.891 µM [inhibitor, full curve, poor fit]
Cc1ccc2c(C(=O)N3CCN(c4ccccc4)CC3)cc(-c3cccnc3)nc2c1C | inconclusive: 11.2 µM [inhibitor, partial curve, poor fit]
COc1ccc(Nc2cc(C(=O)NCCCN(C)C3CCCCC3)c3ccccc3n2)c(OC)c1 | inconclusive: 1.58 µM [activator, partial curve, poor fit]
O=C1CCc2cc(S(=O)(=O)NCCCC(=O)N3CCN(Cc4ccc5c(c4)OCO5)CC3)ccc2N1 | inactive
O=C(Nc1ccncc1NC(=O)c1cccc([N+](=O)[O-])c1)c1cccc([N+](=O)[O-])c1 | inconclusive: 6.31 µM [inhibitor, single point]
CCCn1c2ccccc2c2cnn(CC(=O)NCCCN(Cc3ccccc3)C(C)C)c(=O)c21 | inconclusive: 35.5 µM [inhibitor, single point]
CN(C)S(=O)(=O)c1cccc(C(=O)N=C2N=C3C=CC(Cl)=CN3Cc3ccccc32)c1 | inactive
O=C(/C=C/c1ccco1)NC(=S)Nc1nc(-c2ccc3ccccc3c2)cs1 | inconclusive: 0.708 µM [inhibitor, single point]

Single entries from the list:
Under Potency, O=C(Nc1ccncc1NC(=O)c1cccc([N+](=O)[O-])c1)c1cccc([N+](=O)[O-])c1 is listed with inconclusive: 6.31 µM [inhibitor, single point]
Under Potency, COc1cc(SC)ccc1C(=O)N1CCC(Cc2ccccc2)CC1 is listed with active: 8.2 µM
Under Potency, O=C(NCc1cccnc1)c1cc(Sc2ccccc2Cl)nc2ccccc12 is listed with inconclusive: 35.5 µM [inhibitor, single point]
